Data from paper PMC9166773, “Latrophilin-2 is a novel receptor of LRG1 that rescues vascular and neurological abnormalities and restores diabetic erectile function” (Experimental & Molecular Medicine, 2022).
Results are given in words; binding and its absence hold for the method and conditions named. For part of these data: In cells and extracts the contact can be indirect. Some results given as binding are weak or reduced against the parent protein; the word gives no strength. Tags and fused reporters may be left off the sequences shown. Values belong to the molecule of their own block, whether it stands above or below them.

By UniProt entry, the sequences of proteins in these tests, tags left out.
UniProt P17931: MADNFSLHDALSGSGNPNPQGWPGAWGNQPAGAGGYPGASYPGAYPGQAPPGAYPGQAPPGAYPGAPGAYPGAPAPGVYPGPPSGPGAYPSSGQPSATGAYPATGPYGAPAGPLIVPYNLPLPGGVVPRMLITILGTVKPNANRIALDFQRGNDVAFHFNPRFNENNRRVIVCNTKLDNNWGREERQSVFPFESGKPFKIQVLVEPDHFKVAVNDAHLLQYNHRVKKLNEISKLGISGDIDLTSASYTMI
UniProt Q16718: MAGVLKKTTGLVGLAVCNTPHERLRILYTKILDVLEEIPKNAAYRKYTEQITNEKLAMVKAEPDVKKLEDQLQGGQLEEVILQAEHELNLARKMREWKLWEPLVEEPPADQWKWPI

Legend:
[1] = target: T1, Leucine-rich alpha-2-glycoprotein 1 (LRG1), recombinant tag-free human LRG1 (human) (UniProt P02750); test: TriCEPS-based ligand-receptor capture (LRC-TriCEPS) with LC-MS/MS; TriCEPS-coupled LRG1 (300 ug) incubated 90 min at 4 °C with live HEK293T cells mildly oxidised with 1.5 mM NaIO4, PBS with 1% FBS pH 6.5; captured glycoproteins affinity purified and identified by LC-MS/MS; transferrin as control ligand; hits: enrichment factor > 4 and FDR-adjusted P < 0.05; only the target purified
T1 sequence: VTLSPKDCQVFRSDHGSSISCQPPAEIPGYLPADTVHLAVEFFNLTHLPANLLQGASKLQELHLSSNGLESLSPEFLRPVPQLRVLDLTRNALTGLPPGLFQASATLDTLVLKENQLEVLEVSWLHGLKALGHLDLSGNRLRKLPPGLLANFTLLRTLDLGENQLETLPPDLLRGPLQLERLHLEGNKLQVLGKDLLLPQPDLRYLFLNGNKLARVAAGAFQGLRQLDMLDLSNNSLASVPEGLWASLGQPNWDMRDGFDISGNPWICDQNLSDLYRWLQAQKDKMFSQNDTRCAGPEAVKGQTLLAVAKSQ

[2] = target: T2, Latrophilin-2 (LPHN2), endogenous (human (endogenous in HEK293T and HUVEC)) (UniProt O95490); test: cell surface binding assay (confocal fluorescence microscopy); HEK293T cells and HUVECs (shCon or shLPHN2 lentivirus) incubated with LRG1-YFP or YFP (10 ug/ml) for 1 h at 37 °C, washed, fixed, imaged; only the binder purified
T2 sequence: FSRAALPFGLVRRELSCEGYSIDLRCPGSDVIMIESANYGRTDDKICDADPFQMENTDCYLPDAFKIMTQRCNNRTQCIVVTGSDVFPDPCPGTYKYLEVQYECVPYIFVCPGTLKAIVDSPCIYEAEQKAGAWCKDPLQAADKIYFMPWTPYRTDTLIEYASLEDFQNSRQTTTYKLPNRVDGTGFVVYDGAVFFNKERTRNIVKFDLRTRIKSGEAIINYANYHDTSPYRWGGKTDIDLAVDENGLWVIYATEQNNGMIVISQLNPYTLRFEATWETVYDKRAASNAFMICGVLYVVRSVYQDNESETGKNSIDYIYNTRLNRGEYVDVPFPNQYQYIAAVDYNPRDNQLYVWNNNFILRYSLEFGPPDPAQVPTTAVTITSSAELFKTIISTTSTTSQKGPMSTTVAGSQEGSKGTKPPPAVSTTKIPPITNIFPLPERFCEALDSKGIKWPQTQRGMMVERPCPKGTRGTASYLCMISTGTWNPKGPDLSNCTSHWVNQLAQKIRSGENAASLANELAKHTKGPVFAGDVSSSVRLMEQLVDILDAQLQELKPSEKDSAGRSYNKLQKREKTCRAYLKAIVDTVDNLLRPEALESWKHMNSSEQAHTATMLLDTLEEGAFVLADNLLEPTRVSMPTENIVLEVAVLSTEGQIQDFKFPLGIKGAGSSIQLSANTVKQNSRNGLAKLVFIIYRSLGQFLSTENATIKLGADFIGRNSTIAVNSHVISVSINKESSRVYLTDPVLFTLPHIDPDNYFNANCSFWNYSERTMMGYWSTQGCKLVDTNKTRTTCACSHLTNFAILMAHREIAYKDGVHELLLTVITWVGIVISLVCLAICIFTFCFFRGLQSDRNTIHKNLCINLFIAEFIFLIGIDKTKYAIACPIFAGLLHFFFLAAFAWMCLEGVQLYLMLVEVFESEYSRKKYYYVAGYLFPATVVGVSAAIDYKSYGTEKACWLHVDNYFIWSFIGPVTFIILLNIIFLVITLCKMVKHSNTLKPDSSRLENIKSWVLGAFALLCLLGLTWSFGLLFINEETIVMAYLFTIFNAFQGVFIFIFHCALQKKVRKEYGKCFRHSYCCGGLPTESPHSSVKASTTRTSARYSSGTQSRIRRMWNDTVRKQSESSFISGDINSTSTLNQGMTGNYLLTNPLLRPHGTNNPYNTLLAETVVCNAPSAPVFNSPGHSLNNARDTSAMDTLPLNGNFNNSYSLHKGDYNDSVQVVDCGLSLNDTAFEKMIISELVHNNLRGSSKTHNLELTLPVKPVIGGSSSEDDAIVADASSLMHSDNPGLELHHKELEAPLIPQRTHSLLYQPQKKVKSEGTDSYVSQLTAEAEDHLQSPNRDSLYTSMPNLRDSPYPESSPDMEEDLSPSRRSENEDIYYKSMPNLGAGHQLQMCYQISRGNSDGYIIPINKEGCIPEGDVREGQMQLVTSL

[3] = target: T3, LPHN2 Lec-Olf-GAIN/GPS domains (F26-R796), recombinant ecto-full LPHN2, O95490; test: solid-phase binding assay; LRG1 and recombinant extracellular domains of LPHN2 (and Lec/Olf of LPHN1, LPHN3); who was immobilised and conditions not told in the text shown; both purified; settings: remark: other sources report otherwise
T3 chain: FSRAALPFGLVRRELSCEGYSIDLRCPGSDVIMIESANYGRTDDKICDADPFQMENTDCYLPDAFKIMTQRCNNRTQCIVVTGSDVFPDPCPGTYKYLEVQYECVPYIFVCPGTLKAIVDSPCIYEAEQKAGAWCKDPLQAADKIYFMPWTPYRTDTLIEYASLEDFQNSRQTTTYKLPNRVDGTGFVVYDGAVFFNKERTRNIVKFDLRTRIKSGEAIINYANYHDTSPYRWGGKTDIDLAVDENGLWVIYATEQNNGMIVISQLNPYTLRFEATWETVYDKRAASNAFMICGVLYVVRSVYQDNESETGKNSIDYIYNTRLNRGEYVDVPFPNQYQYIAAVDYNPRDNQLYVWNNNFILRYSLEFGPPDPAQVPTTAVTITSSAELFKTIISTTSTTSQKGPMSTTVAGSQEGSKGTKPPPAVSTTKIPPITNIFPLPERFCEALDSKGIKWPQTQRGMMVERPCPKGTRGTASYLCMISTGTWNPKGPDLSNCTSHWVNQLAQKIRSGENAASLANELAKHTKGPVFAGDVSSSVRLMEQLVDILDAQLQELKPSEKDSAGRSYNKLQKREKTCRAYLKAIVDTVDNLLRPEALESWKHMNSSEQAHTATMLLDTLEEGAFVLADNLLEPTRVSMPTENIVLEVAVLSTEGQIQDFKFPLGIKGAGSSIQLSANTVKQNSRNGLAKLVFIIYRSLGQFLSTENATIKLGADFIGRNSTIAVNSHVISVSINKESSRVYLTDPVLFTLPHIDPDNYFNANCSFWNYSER

[4] = target: T2, Latrophilin-2 (LPHN2), endogenous (human (endogenous in HEK293T and HUVEC)); test: co-IP; HUVECs treated with or without LRG1 (1 ug/ml) for 10 min, lysed in RIPA buffer; IP with anti-LPHN2 antibody, immunoblot for LRG1 and LPHN2; only the binder purified

- binding [1]: binds
Molecule: galectin-3 (LEG3) (from UniProt P17931 1-250)

- binding [1]: binds
Molecule: NADH dehydrogenase 1 alpha subcomplex subunit 5 (NDUA5) (from UniProt Q16718 1-116)

- binding [1]: binds
B1: Latrophilin-2 (LPHN2), endogenous (receptor, UniProt O95490 26-1459)
chain: T2 sequence

- binding [2]: binds
B2: YFP-His-tagged human LRG1 (LRG1-YFP) (ligand, UniProt P02750 36-347)
chain: T1 sequence

- binding [3]: no binding
B3: Leucine-rich alpha-2-glycoprotein 1 (LRG1), recombinant tag-free human LRG1, P02750 36-347 (ligand)
chain: T1 sequence

- binding [4]: binds
B4: Leucine-rich alpha-2-glycoprotein 1 (LRG1), recombinant tag-free human LRG1 (ligand, UniProt P02750 36-347, looked up)
chain: T1 sequence
notes: human LRG1, residues V36-Q347; In the TriCEPS capture LRG1 was coupled to the TriCEPS reagent; Residues of the thrombin site may remain after cleavage; also called recombinant LRG1; soluble LRG1; not shown: Fc (human IgG), C-terminal, cleaved
